Experimental findings from article PMC3226675 are described below.

Results are given in words; binding and its absence hold for the method and conditions named. For part of these data: Binding calls can cover weak binding; strength is not graded here. Tags and fused reporters may be left off the sequences shown. For part of these data: In cells and extracts the contact can be indirect.

For one test, the target named is T1, GST-Upf1 (1-417) (human) (UniProt Q92900).
T1 sequence: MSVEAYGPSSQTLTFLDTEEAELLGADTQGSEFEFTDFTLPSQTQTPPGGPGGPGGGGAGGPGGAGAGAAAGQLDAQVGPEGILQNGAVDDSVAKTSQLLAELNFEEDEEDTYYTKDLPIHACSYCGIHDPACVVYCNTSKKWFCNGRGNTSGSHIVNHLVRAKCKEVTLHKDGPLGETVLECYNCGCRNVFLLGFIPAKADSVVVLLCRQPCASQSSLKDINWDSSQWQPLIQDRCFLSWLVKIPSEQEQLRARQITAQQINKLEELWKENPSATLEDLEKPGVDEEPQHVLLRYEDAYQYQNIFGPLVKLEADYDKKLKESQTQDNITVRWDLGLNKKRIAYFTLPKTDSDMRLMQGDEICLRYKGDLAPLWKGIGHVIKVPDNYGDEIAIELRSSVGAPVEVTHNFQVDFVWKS
Nature of the test: pull-down; in vivo binding: Stau2 and Upf1 expression vectors co-transfected in 293F cells; lysate with 20 ug/ml RNase A, 20 mM Tris-HCl pH 7.5, 150 mM NaCl, 1 mM DTT, 0.5% Tween 20; GST-Upf1 or its deletion mutants pulled down with glutathione Sepharose, 2 h at 4 C; Western blotting.

The target in test [1] is T2, GST-Upf1 (417-1118) (human) (UniProt Q92900).
T2 sequence: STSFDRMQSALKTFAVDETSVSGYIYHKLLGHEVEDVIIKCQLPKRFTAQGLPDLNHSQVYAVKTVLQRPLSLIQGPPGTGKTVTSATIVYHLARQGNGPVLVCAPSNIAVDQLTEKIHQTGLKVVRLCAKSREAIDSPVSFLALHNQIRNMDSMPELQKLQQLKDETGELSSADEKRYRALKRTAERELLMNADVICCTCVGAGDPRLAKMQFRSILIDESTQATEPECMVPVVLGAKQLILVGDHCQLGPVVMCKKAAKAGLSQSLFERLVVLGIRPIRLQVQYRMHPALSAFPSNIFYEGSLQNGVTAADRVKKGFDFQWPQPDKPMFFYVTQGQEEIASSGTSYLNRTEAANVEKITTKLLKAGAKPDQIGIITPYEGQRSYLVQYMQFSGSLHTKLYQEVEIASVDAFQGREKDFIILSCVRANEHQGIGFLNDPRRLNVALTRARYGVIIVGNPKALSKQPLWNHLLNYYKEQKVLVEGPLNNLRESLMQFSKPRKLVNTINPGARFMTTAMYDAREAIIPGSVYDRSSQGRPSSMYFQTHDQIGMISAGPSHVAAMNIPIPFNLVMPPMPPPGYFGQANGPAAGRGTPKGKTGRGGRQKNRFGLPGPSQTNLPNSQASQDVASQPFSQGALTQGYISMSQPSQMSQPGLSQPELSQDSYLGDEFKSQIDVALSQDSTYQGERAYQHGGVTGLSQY
The description is as above.

Test [2] has as its target GST-fused Stau2 (rat Staufen2, isoform Stau2^59) (rat). Put plainly: pull-down; in vitro binding: recombinant FLAG-Upf1 (5 ug) mixed with recombinant GST-Stau2 (1 ug) or GST (1 ug) in 20 mM Tris-HCl pH 7.5, 150 mM NaCl, 1 mM DTT, 0.05% Tween 20, 4 C for 2 hr; precipitated with glutathione-Sepharose 4B; SDS-PAGE and CBB staining; both purified.

As to FLAG-Stau2 (rat), the binding entry with GST-Upf1 (1-417) (human) is on record as “binds”; in test [1], “no binding”.

B1: Recombinant FLAG-Upf1 protein (protein, UniProt Q92900-2 1-1118)
chain: MSVEAYGPSSQTLTFLDTEEAELLGADTQGSEFEFTDFTLPSQTQTPPGGPGGPGGGGAGGPGGAGAGAAAGQLDAQVGPEGILQNGAVDDSVAKTSQLLAELNFEEDEEDTYYTKDLPIHACSYCGIHDPACVVYCNTSKKWFCNGRGNTSGSHIVNHLVRAKCKEVTLHKDGPLGETVLECYNCGCRNVFLLGFIPAKADSVVVLLCRQPCASQSSLKDINWDSSQWQPLIQDRCFLSWLVKIPSEQEQLRARQITAQQINKLEELWKENPSATLEDLEKPGVDEEPQHVLLRYEDAYQYQNIFGPLVKLEADYDKKLKESQTQDNITVRWDLGLNKKRIAYFTLPKTDSDMRLMQGDEICLRYKGDLAPLWKGIGHVIKVPDNYGDEIAIELRSSVGAPVEVTHNFQVDFVWKSTSFDRMQSALKTFAVDETSVSGYIYHKLLGHEVEDVIIKCQLPKRFTAQGLPDLNHSQVYAVKTVLQRPLSLIQGPPGTGKTVTSATIVYHLARQGNGPVLVCAPSNIAVDQLTEKIHQTGLKVVRLCAKSREAIDSPVSFLALHNQIRNMDSMPELQKLQQLKDETGELSSADEKRYRALKRTAERELLMNADVICCTCVGAGDPRLAKMQFRSILIDESTQATEPECMVPVVLGAKQLILVGDHCQLGPVVMCKKAAKAGLSQSLFERLVVLGIRPIRLQVQYRMHPALSAFPSNIFYEGSLQNGVTAADRVKKGFDFQWPQPDKPMFFYVTQGQEEIASSGTSYLNRTEAANVEKITTKLLKAGAKPDQIGIITPYEGQRSYLVQYMQFSGSLHTKLYQEVEIASVDAFQGREKDFIILSCVRANEHQGIGFLNDPRRLNVALTRARYGVIIVGNPKALSKQPLWNHLLNYYKEQKVLVEGPLNNLRESLMQFSKPRKLVNTINPGARFMTTAMYDAREAIIPGSVYDRSSQGRPSSMYFQTHDQIGMISAGPSHVAAMNIPIPFNLVMPPMPPPGYFGQANGPAAGRGTPKGKTGRGGRQKNRFGLPGPSQTNLPNSQASQDVASQPFSQGALTQGYISMSQPSQMSQPGLSQPELSQDSYLGDEFKSQIDVALSQDSTYQGERAYQHGGVTGLSQY
Regarding B1, the binding result in test [2] is reported as “binds”.
